# Reference: PMC5996148
# Chains of the proteins cited; added tags and fusions are not shown. Lines headed by an entry give the natural chain unless they say otherwise; changes in a name come on top.
# UniProt Q9Y617: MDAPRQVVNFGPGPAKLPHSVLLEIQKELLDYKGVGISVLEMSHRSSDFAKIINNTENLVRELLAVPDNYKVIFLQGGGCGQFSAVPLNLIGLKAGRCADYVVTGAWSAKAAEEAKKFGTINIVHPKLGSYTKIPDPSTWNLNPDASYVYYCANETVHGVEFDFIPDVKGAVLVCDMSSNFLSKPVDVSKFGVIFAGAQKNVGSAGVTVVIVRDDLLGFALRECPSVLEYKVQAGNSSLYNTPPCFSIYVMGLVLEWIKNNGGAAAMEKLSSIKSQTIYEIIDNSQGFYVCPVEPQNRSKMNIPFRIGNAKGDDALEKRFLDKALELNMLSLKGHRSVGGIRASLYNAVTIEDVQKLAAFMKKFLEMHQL
# Some of the results follow. For some assays here: Construct or isoform of the protein are uncertain.
# How the values were obtained:
# Assay in all cases: protein microarray (ProtoArray v5.0), streptavidin-Alexa Fluor 647
# Conditions in all cases: 3'-biotin; 20 mM Tris (pH 7.5), 5 mM MgCl2, 100 mM KCl, 0.1% Tween-20, A/T-rich and random oligonucleotide blockers; temperature not stated; high values mean tight binding
# [1] = test system: PRMT7 (human)
# [2] = test system: PROCR (human)
# [3] = test system: PRPSAP2 (human)
# [4] = target: T1, PRRG2 (UniProt O14669)
# T1 sequence: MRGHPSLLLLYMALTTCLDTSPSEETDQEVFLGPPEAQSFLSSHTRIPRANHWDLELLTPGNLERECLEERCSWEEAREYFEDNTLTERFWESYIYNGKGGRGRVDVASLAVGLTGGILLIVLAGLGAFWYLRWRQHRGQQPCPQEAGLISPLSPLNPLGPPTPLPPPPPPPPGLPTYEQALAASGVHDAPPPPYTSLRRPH
# [5] = test system: PRRT2 (human)
# [6] = target: PSAT1 (UniProt Q9Y617)
# [7] = test system: PSCD4 (human)
# [8] = test system: PSG11 (human)
# [9] = test system: PSMA4 (human)
# [10] = test system: PSMA5 (human)
# [11] = test system: PSMB4 (human)
# [12] = test system: PSMB8 (human)
# [13] = test system: PSMD10 (human)
# [14] = test system: PSMD11 (human)
# [15] = test system: PSMD5 (human)
# [16] = test system: PSME1 (human)
# [17] = test system: PSPH (human)
# [18] = target: T2, PSRC1 (UniProt Q6PGN9)
# T2 sequence: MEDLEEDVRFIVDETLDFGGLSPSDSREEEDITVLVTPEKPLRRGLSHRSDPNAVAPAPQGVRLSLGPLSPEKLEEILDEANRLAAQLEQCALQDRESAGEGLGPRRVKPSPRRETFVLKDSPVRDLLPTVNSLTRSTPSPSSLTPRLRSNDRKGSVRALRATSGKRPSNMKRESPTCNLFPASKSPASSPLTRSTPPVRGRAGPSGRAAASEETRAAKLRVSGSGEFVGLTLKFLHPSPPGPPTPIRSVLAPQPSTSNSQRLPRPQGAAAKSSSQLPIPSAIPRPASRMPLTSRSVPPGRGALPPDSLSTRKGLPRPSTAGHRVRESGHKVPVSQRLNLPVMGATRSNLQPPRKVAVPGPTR
# [19] = test system: PTCHD1 (human)
# [20] = test system: PTGES2 (human)
sequence,measurement,setting,value
GGTGACAGGGGTATGGGGAGGGG [G4-2 biotinylated (Ct1)],binding signal,[1],-0.395 z-score
same,binding signal,[2],-0.37 z-score
same,binding signal,[3],-0.365 z-score
same,binding signal,[4],-0.386 z-score
same,binding signal,[5],-0.373 z-score
same,binding signal,[6],-0.389 z-score
same,binding signal,[7],-0.364 z-score
same,binding signal,[8],-0.386 z-score
same,binding signal,[9],-0.387 z-score
same,binding signal,[10],-0.38 z-score
same,binding signal,[11],-0.374 z-score
same,binding signal,[12],-0.357 z-score
same,binding signal,[13],-0.379 z-score
same,binding signal,[14],-0.394 z-score
same,binding signal,[15],-0.397 z-score
same,binding signal,[16],-0.393 z-score
same,binding signal,[17],-0.362 z-score
same,binding signal,[18],4.05 z-score
same,binding signal,[19],-0.38 z-score
same,binding signal,[20],-0.399 z-score

# Given with tabs: part of the list above
sequence	measurement	setting	value
GGTGACAGGGGTATGGGGAGGGG [G4-2 biotinylated (Ct1)]	binding signal	[18]	4.05 z-score
same	binding signal	[19]	-0.38 z-score
